From PMC6954888
These are yes or no findings as the source states them, for the method shown. In cells and extracts the contact can be indirect. Some binding calls cover weakened binding; strength is not graded here.

Amino acid sequences for entries named in this document (tags omitted).
UniProt P46937: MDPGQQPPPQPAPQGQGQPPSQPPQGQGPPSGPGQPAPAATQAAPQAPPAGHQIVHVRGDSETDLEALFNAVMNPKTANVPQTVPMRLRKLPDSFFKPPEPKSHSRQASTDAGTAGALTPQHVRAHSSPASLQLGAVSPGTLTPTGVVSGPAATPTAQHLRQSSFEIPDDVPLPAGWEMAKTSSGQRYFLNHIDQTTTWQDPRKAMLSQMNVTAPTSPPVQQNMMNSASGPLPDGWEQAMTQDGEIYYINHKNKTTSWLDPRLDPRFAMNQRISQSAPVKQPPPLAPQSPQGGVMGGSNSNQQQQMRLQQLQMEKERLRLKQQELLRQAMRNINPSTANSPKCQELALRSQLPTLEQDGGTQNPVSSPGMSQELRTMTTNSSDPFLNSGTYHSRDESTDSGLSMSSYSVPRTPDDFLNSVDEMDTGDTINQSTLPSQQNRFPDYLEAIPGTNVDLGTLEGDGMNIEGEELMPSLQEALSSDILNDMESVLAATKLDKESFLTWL

T1: ubiquitin specific peptidase 47 (USP47) (UniProt Q96K76)
T1 sequence: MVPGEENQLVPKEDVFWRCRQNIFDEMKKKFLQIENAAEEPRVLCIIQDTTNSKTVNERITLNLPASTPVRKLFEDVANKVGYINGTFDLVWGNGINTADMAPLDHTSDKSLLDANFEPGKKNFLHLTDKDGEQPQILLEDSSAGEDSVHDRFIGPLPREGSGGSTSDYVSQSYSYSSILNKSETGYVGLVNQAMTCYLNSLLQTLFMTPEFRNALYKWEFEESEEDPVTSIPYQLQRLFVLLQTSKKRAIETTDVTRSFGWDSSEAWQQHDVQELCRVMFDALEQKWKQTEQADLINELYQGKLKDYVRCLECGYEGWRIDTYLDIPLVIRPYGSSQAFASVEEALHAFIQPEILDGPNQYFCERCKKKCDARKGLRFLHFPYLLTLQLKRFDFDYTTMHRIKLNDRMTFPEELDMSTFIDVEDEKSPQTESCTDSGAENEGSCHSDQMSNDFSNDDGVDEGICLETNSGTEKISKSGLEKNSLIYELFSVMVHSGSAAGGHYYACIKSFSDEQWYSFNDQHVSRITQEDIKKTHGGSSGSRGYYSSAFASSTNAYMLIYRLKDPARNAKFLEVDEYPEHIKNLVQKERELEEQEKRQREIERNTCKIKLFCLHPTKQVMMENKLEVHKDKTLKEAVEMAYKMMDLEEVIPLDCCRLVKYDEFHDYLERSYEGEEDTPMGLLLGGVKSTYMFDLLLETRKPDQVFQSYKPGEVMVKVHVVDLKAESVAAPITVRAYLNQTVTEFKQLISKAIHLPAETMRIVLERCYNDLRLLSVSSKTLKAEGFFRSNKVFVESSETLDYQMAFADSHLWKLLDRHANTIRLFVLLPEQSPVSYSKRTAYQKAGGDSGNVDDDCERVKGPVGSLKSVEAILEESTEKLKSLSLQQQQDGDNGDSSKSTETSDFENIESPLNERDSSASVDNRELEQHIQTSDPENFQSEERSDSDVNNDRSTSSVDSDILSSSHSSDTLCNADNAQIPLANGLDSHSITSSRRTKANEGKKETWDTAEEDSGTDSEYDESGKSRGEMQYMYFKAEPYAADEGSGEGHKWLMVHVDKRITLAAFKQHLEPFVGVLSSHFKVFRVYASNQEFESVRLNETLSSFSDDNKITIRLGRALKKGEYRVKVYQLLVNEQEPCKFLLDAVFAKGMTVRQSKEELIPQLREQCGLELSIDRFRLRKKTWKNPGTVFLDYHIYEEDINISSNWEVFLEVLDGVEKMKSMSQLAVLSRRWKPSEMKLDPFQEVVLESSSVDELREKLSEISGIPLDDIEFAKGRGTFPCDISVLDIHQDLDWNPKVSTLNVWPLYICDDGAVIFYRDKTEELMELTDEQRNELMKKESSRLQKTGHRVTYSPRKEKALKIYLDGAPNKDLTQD


Experiments:
[1] = molecular target: T1, ubiquitin specific peptidase 47 (USP47); test: co-IP; Flag-YAP and Xpress-USP47 co-transfected into HEK293T cells; immunoprecipitation with α-Flag beads or α-Xpress beads, immunoblotting with α-Xpress or α-Flag antibody
[2] = molecular target: Yes-associated protein (YAP) (UniProt P46937); test: as above

Molecule | binding [1] | binding [2]
Yes-associated protein (YAP) (from UniProt P46937 1-504) | binds | 
ubiquitin specific peptidase 47 (USP47) (enzyme, UniProt Q96K76 1-1375) MVPGEENQLVPKEDVFWRCRQNIFDEMKKKFLQIENAAEEPRVLCIIQDTTNSKTVNERITLNLPASTPVRKLFEDVANKVGYINGTFDLVWGNGINTADMAPLDHTSDKSLLDANFEPGKKNFLHLTDKDGEQPQILLEDSSAGEDSVHDRFIGPLPREGSGGSTSDYVSQSYSYSSILNKSETGYVGLVNQAMTCYLNSLLQTLFMTPEFRNALYKWEFEESEEDPVTSIPYQLQRLFVLLQTSKKRAIETTDVTRSFGWDSSEAWQQHDVQELCRVMFDALEQKWKQTEQADLINELYQGKLKDYVRCLECGYEGWRIDTYLDIPLVIRPYGSSQAFASVEEALHAFIQPEILDGPNQYFCERCKKKCDARKGLRFLHFPYLLTLQLKRFDFDYTTMHRIKLNDRMTFPEELDMSTFIDVEDEKSPQTESCTDSGAENEGSCHSDQMSNDFSNDDGVDEGICLETNSGTEKISKSGLEKNSLIYELFSVMVHSGSAAGGHYYACIKSFSDEQWYSFNDQHVSRITQEDIKKTHGGSSGSRGYYSSAFASSTNAYMLIYRLKDPARNAKFLEVDEYPEHIKNLVQKERELEEQEKRQREIERNTCKIKLFCLHPTKQVMMENKLEVHKDKTLKEAVEMAYKMMDLEEVIPLDCCRLVKYDEFHDYLERSYEGEEDTPMGLLLGGVKSTYMFDLLLETRKPDQVFQSYKPGEVMVKVHVVDLKAESVAAPITVRAYLNQTVTEFKQLISKAIHLPAETMRIVLERCYNDLRLLSVSSKTLKAEGFFRSNKVFVESSETLDYQMAFADSHLWKLLDRHANTIRLFVLLPEQSPVSYSKRTAYQKAGGDSGNVDDDCERVKGPVGSLKSVEAILEESTEKLKSLSLQQQQDGDNGDSSKSTETSDFENIESPLNERDSSASVDNRELEQHIQTSDPENFQSEERSDSDVNNDRSTSSVDSDILSSSHSSDTLCNADNAQIPLANGLDSHSITSSRRTKANEGKKETWDTAEEDSGTDSEYDESGKSRGEMQYMYFKAEPYAADEGSGEGHKWLMVHVDKRITLAAFKQHLEPFVGVLSSHFKVFRVYASNQEFESVRLNETLSSFSDDNKITIRLGRALKKGEYRVKVYQLLVNEQEPCKFLLDAVFAKGMTVRQSKEELIPQLREQCGLELSIDRFRLRKKTWKNPGTVFLDYHIYEEDINISSNWEVFLEVLDGVEKMKSMSQLAVLSRRWKPSEMKLDPFQEVVLESSSVDELREKLSEISGIPLDDIEFAKGRGTFPCDISVLDIHQDLDWNPKVSTLNVWPLYICDDGAVIFYRDKTEELMELTDEQRNELMKKESSRLQKTGHRVTYSPRKEKALKIYLDGAPNKDLTQD |  | binds
